Measured values as given in patent publication US7737252 (dated 2010).

Tests used:
[1] = general procedure: Fmoc solid-phase peptide synthesis; Fmoc-Gly Wang resin; HBTU; conditions: whole synthesis, scale 0.1 mmol
[2] = general procedure: Fmoc solid-phase peptide synthesis; Fmoc-Gly-Wang resin; HBTU; conditions: whole synthesis, scale 0.25 mmol

Substance | crude mass [1] [mg] | crude mass [2] [mg]
H-ACDCRGDCFCG-OH (cysteine pairing not given here) | 100 | 
[Cys^7-9]cyclo[CH2CO-Lys-Asp-Cys]-Arg-Gly-Asp-Cys-Phe-Cys-Gly-Gly-OH |  | 260
